{"source": "PubChem BioAssay AID1259405 (NCATS, 2018)", "assay": "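Knock-downs that lift recombinant protein yield in hamster ovary cells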 (primary screen)", "system": "Chinese hamster CHO-K1 ovary cells with stable secreted eGFP expression", "knock-down reagent": "single siRNA against mouse genes, 0.8 pmol siRNA per well (2 µl of 400 nM stock)", "time to read-out": "3 days", "read-out": "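Percent of the per-plate non-targeting control median for intracellular GFP per well by laser scanning cytometry and for cell viability by ATP luminescence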", "scale": "GFP, % of control: higher = more GFP per well, higher productivity; viability (ATP), % of control: higher = more viable cells (more ATP)", "call rule": "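Called active when intracellular GFP, relative to negative control, is at or above 120%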", "note": "The deposit covers about 50,000 reagents; this is an unselected part. Over the whole deposit, about 4,000 (8%) got an active call. 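Mouse siRNA library applied to hamster cells; one well for each siRNA.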"}
{"Target gene": "Selenow", "PubChem SID": "SID363554824", "GFP, % of control": 71.5, "viability (ATP), % of control": 101, "Outcome": "inactive"}
{"Target gene": "Selenow", "PubChem SID": "SID363568271", "GFP, % of control": 43.8, "viability (ATP), % of control": 56.2, "Outcome": "inactive"}
{"Target gene": "Selenow", "PubChem SID": "SID363586330", "GFP, % of control": 46.6, "viability (ATP), % of control": 52.7, "Outcome": "inactive"}
{"Target gene": "Zfyve16", "PubChem SID": "SID363582605", "GFP, % of control": 110, "viability (ATP), % of control": 118, "Outcome": "inactive"}
{"Target gene": "Zfyve16", "PubChem SID": "SID363584365", "GFP, % of control": 67.6, "viability (ATP), % of control": 75.3, "Outcome": "inactive"}
{"Target gene": "Avpi1", "PubChem SID": "SID363546525", "GFP, % of control": 53.7, "viability (ATP), % of control": 75.2, "Outcome": "inactive"}
{"Target gene": "Avpi1", "PubChem SID": "SID363548281", "GFP, % of control": 72, "viability (ATP), % of control": 79.1, "Outcome": "inactive"}
{"Target gene": "Avpi1", "PubChem SID": "SID363560459", "GFP, % of control": 32.1, "viability (ATP), % of control": 24.3, "Outcome": "inactive"}
{"Target gene": "Slc16a10", "PubChem SID": "SID363547847", "GFP, % of control": 76.7, "viability (ATP), % of control": 74.3, "Outcome": "inactive"}
{"Target gene": "Slc16a10", "PubChem SID": "SID363558616", "GFP, % of control": 99.9, "viability (ATP), % of control": 87.3, "Outcome": "inactive"}
{"Target gene": "Slc16a10", "PubChem SID": "SID363560374", "GFP, % of control": 84.4, "viability (ATP), % of control": 77.3, "Outcome": "inactive"}
{"Target gene": "Cxxc5", "PubChem SID": "SID363550255", "GFP, % of control": 67, "viability (ATP), % of control": 77.4, "Outcome": "inactive"}
{"Target gene": "Cxxc5", "PubChem SID": "SID363564764", "GFP, % of control": 95.8, "viability (ATP), % of control": 98.4, "Outcome": "inactive"}
{"Target gene": "Cxxc5", "PubChem SID": "SID363588309", "GFP, % of control": 74.1, "viability (ATP), % of control": 88.8, "Outcome": "inactive"}
{"Target gene": "Hk2", "PubChem SID": "SID363570786", "GFP, % of control": 127, "viability (ATP), % of control": 77.3, "Outcome": "active"}
{"Target gene": "A630023P12Rik", "PubChem SID": "SID363542899", "GFP, % of control": 62.5, "viability (ATP), % of control": 83.1, "Outcome": "inactive"}
{"Target gene": "A630023P12Rik", "PubChem SID": "SID363546416", "GFP, % of control": 34.5, "viability (ATP), % of control": 23, "Outcome": "inactive"}
{"Target gene": "A630023P12Rik", "PubChem SID": "SID363548172", "GFP, % of control": 66.7, "viability (ATP), % of control": 69.8, "Outcome": "inactive"}

Only “GFP, % of control” (2 entries from above):
A630023P12Rik [SID363542899]	62.5
A630023P12Rik [SID363546416]	34.5
